Measured data: PubChem BioAssay AID1259308 (NCATS, 2017)

Assay: 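Candidate targets for better recombinant protein yield in mammalian cells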 (primary screen)
Cells: human HEK293 embryonic kidney cells stably expressing firefly luciferase (HEK-CMV-Luc2-Hygro)
Knock-down reagent: single siRNA against human genes, 0.8 pmol siRNA per well
Duration: 72 h
Measurement: 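Luciferase light (ONE-Glo) measured on one replicate plate set and viability (CellTiter-Glo) on the other, scaled to a negative control siRNA, with robust z-scores and luciferase per cell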
Reading the numbers: total luciferase, z-score and total luciferase, % of control: higher = more reporter protein produced; luciferase per cell, z-score: higher = more reporter output per viable cell; viable cells, % of control: higher = more viable cells
Hit rule: 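Active when the median/MAD z-score for overall luciferase is greater than 3; a gene was taken forward for validation with new siRNAs if at least two of its three siRNAs passed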
Calls: active = raised luciferase; inactive = no rise
Here is one part, drawn at random, of about 59,000 deposited reagents. About 1,510 of them (2.6%) were called active. 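Calls use total luciferase alone and ignore viability, so some active siRNAs may act by altering cell number.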

Target gene | PubChem SID | total luciferase, z-score | total luciferase, % of control | luciferase per cell, z-score | viable cells, % of control | outcome
KRT19 | SID160776427 | -1.56 | 50.9 | 0.381 | 51.4 | inactive
KRT19 | SID160776428 | 0.132 | 84.5 | -0.54 | 109 | inactive
KRT19 | SID160776432 | 1.24 | 106 | 0.482 | 105 | inactive
TMEM144 | SID160743509 | -0.702 | 67.9 | -0.728 | 91.9 | inactive
TMEM144 | SID160743510 | 1.78 | 117 | 1.2 | 95.5 | inactive
TMEM144 | SID160743511 | -0.491 | 72.1 | -0.726 | 97.6 | inactive
TCP11L2 | SID160762321 | 0.828 | 98.4 | 1.27 | 78.7 | inactive
TCP11L2 | SID160762322 | -0.186 | 78.2 | -0.348 | 95.7 | inactive
TCP11L2 | SID160762323 | -0.672 | 68.5 | -0.604 | 89.8 | inactive
RCC2P7 | SID160768156 | 2.32 | 128 | 2.62 | 71.7 | inactive
RCC2P7 | SID160768157 | -0.152 | 78.9 | -0.0568 | 89.5 | inactive
RCC2P7 | SID160768158 | -0.481 | 72.3 | -1.21 | 111 | inactive
CECR2 | SID160738817 | 0 | 81.9 | -0.614 | 108 | inactive
CECR2 | SID160738818 | -0.0374 | 81.1 | -0.372 | 100 | inactive
CECR2 | SID160738819 | -0.41 | 73.7 | 0.264 | 76.9 | inactive
PRDX3 | SID160729560 | -2.55 | 31.1 | -1.36 | 49.8 | inactive
PRDX3 | SID160729561 | 3.05 | 142 | 3.03 | 71.6 | active
PRDX3 | SID160729562 | -0.417 | 73.6 | -0.684 | 98.5 | inactive
HACD3 | SID160740882 | 0.151 | 84.9 | -0.0395 | 95.9 | inactive
HACD3 | SID160740883 | 0.192 | 85.7 | 0.209 | 90.6 | inactive
HACD3 | SID160740884 | -0.0696 | 80.5 | -0.0752 | 91.8 | inactive
AVEN | SID160745589 | 1.2 | 106 | 0.935 | 92.3 | inactive
AVEN | SID160745590 | -0.162 | 78.7 | -0.9 | 111 | inactive
AVEN | SID160745591 | 0.0747 | 83.4 | -0.733 | 113 | inactive
COMT | SID160752244 | 0.273 | 87.3 | -0.326 | 106 | inactive
COMT | SID160753286 | 2.01 | 122 | 1.42 | 93.7 | inactive
COMT | SID160754343 | 0.226 | 86.4 | -0.127 | 99.8 | inactive
CLDN9 | SID160724208 | -0.219 | 77.5 | 0.913 | 68.1 | inactive
CLDN9 | SID160724210 | -1.34 | 55.3 | -1.26 | 86.1 | inactive
CLDN9 | SID160724211 | 0.438 | 90.6 | -0.0834 | 103 | inactive
RBM3 | SID160715730 | -0.833 | 65.3 | -1.52 | 109 | inactive
RBM3 | SID160715731 | -0.153 | 78.9 | 0.189 | 83.8 | inactive
RBM3 | SID160715733 | 0.241 | 86.7 | -0.301 | 105 | inactive
MAP4K4 | SID160722234 | -0.0979 | 79.9 | 0.0741 | 87.6 | inactive
MAP4K4 | SID160722235 | 2.48 | 131 | 1.59 | 96.4 | inactive
MAP4K4 | SID160722236 | 0.817 | 98.1 | 0.332 | 100 | inactive
TMPRSS9 | SID160765226 | -0.396 | 74 | -0.17 | 86.5 | inactive
TMPRSS9 | SID160765227 | 1.92 | 120 | 1.29 | 95.7 | inactive
TMPRSS9 | SID160765228 | 0.629 | 94.4 | -0.402 | 117 | inactive
